Some of the results follow. The main result of the screen is listed elsewhere. These columns were measured beside it and carry no call. The list favours compounds with an active or inconclusive main result. Words in brackets tell the shape of the fitted curve; partial curves, single points and poor fits give uncertain potencies.
Assay: qHTS Assay to Find Inhibitors of Chronic Active B-Cell Receptor Signaling
Details: ABC-DLBCL IkBa-CBG/CBR reporter, luminescence ratio (green luciferase fused to IkBa over red control in TMD8 lymphoma cells), 4 h
Method in brief: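 TMD8 human ABC-DLBCL cells with doxycycline-inducible IκBα–green luciferase fusion and unfused red luciferase, in 0.5% FBS medium; compounds up to 46 uM, 4 h at 37C. Green/red luminescence ratio, filter-overlap corrected, fitted to concentration-response curves.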

[1] = measured here: CBR red luminescence, cell number
[2] = measured here: IkBa-CBG green luminescence

O=C(Nc1ccc(N2CCOCC2)c(Cl)c1)c1c(F)c(F)c(F)c(F)c1F
AC50 [1]: 0.651 µM [falling, full curve]

Cc1c(C(=O)OCC(=O)N2CC(=O)Nc3ccccc32)oc2ccc(Br)cc12
AC50 [1]: 0.00517 µM [falling, full curve, poor fit]

Cc1nc(N(CCO)C2CCCCC2)c2nnn(Cc3ccccc3)c2n1
AC50 [1]: 35.5 µM [falling, single point]

COC(=O)CNC(=O)c1ccc(OC2CCN(C(=O)C3CC3)CC2)cc1
AC50 [1]: 14.1 µM [falling, partial curve, poor fit]

CCN(CC)S(=O)(=O)c1cccc(N=Nc2c(O)c3ccccc3oc2=O)c1
AC50 [1]: 3.55 µM [falling, partial curve, poor fit]

O=c1c2ccccc2nc2sc(Nc3cccc(C(F)(F)F)c3)nn12
AC50 [1]: 0.0891 µM [falling, full curve, poor fit]

O=C(O)c1ccc(CSc2nnnn2C2CCCCC2)cc1
AC50 [1]: 29.1 µM [rising, single point]

O=C(CN1C(=O)S/C(=C\C=C\c2ccccc2)C1=O)Nc1cccc(O)c1
AC50 [1]: 20.6 µM [falling, single point]

COc1ccccc1C1c2ccc3ccccc3c2Oc2ncn(CCCO)c(=N)c21 (centres undefined)
AC50 [1]: 35.5 µM [falling, single point]

COc1cccc(CNC(=O)c2ccc(Cl)c(S(=O)(=O)N3CCOCC3)c2)c1
AC50 [1]: 2.91 µM [rising, single point]

COc1cc(/C=C(\C#N)c2nc3c(s2)CCCC3)ccc1O
AC50 [1]: 5.8 µM [rising, single point]

CCOc1ccc(/C=C2\SC(=S)N(CCC(=O)Nc3ccc(C(=O)O)cc3)C2=O)cc1
AC50 [1]: 0.631 µM [falling, full curve, poor fit]

CN1C(=O)/C(=C/c2ccc(O)c([N+](=O)[O-])c2)NC1=S
AC50 [1]: 1 µM [rising, full curve, poor fit]

CC1(C)OC(=O)C(=CNCC(=O)NCC(=O)O)C(=O)O1
AC50 [1]: 16.4 µM [falling, partial curve]

COc1ccc(-c2[nH]c(-c3ccc(C(=O)O)cc3)nc2-c2ccccc2)cc1
AC50 [1]: 3.55 µM [falling, partial curve, poor fit]

O=C1CCS/C(=N\N=C\c2ccc(Cl)cc2Cl)N1
AC50 [1]: 4.47 µM [rising, full curve, poor fit]

NC(=O)C1CC(=O)N(c2ccc(OCC(=O)Nc3ccc(F)cc3)cc2)C1 (centres undefined)
AC50 [1]: 1.84 µM [rising, partial curve, poor fit]

CCCC(=O)c1ccc(N2CCCCC2)c(F)c1
AC50 [1]: 35.5 µM [rising, single point]

COc1cc2c(cc1OC)CN(c1nc(CN3CCCC3)nc3sc(C)c(C)c13)CC2
AC50 [1]: 35.5 µM [falling, single point]

O=C(NCc1ccc2c(c1)OCO2)c1cccc([N+](=O)[O-])c1
AC50 [1]: 25.9 µM [rising, single point]

Cc1ccc(-c2csc(NC(=O)COC(=O)c3cccc(S(=O)(=O)N4CCOCC4)c3)n2)cc1
AC50 [1]: 4.47 µM [rising, single point]

O=C(Nc1ccc(N2CCN(C(=O)c3ccco3)CC2)cc1)c1ccccc1
AC50 [1]: 3.55 µM [rising, single point]

Fc1ccc(-c2nc3c(Cl)cc(C(F)(F)F)cn3c2Cl)cc1
AC50 [1]: 9.2 µM [rising, partial curve]

Oc1nc(Nc2ccccc2)sc1/C=C1\C=Nc2ccccc21
AC50 [1]: 15.8 µM [falling, partial curve]

CCCC(=O)NC(=S)Nc1ccc(CN2CCOCC2)cc1
AC50 [1]: 5.62 µM [rising, single point]

COc1cc(N)ccc1Cc1ccc(N)cc1OC
AC50 [1]: 22.4 µM [falling, single point]

COc1ccc(/C=N\NC(=O)COc2ccc(C(C)(C)C)cc2)cc1Cn1nc(C)cc1C
AC50 [1]: 0.411 µM [falling, full curve, poor fit]

Cc1ccc2cc(S(=O)(=O)NCCC(=O)O)ccc2c1
AC50 [1]: 18.4 µM [falling, partial curve, poor fit]

FC(F)(F)c1cc(-c2ccco2)nc(NCc2ccccc2)n1
AC50 [1]: 14.1 µM [falling, single point]

COc1ccc(CN(C)C(=O)Cc2ccc(OC)c(S(=O)(=O)N3CCOCC3)c2)cc1
AC50 [1]: 6.51 µM [rising, partial curve, poor fit]

Cc1nc2ccc(NC(=O)c3ccc(Cl)c(S(=O)(=O)N(C)c4ccccc4)c3)cc2s1
AC50 [1]: 0.461 µM [falling, full curve, poor fit]

O=C(NCCc1ccccc1)C(=O)Nc1ccc([N+](=O)[O-])cc1
AC50 [1]: 22.4 µM [rising, single point]

CCCCNC(=O)C(C)N(CCN(C)C)C(=O)CCCCCN1C(=O)NC(c2ccc(Cl)cc2)C(C(=O)OCc2ccccc2)=C1C (centres undefined)
AC50 [1]: 18.4 µM [falling, partial curve, poor fit]

CCN1C/C(=C/c2cccc([N+](=O)[O-])c2)C(=O)/C(=C/c2cccc([N+](=O)[O-])c2)C1
AC50 [2]: 29.1 µM [falling, partial curve, poor fit]

Cc1ccc(NC(=O)C(C)c2ccc(-c3ccccc3)c(F)c2)cc1 (centres undefined)
AC50 [1]: 29.1 µM [falling, single point]

CCOC(=O)CNc1c(-c2ccc(O)cc2)nc2ccccn12
AC50 [1]: 4.47 µM [falling, partial curve]

COc1ccc(NS(=O)(=O)c2cc(NC(=O)c3ccccc3F)ccc2N2CCCC2)cc1
AC50 [1]: 2.51 µM [falling, partial curve, poor fit]

O=C(N/N=C/c1c(F)cccc1Cl)c1cc(C2CC2)[nH]n1
AC50 [1]: 10 µM [falling, partial curve]

CN(C)CCN(C(=O)c1ccc(N2C(=O)CCC2=O)cc1)c1nc2cc3c(cc2s1)OCCO3
AC50 [1]: 10 µM [falling, partial curve]

COC(=O)c1ccccc1S(=O)(=O)N1CCC(NC(=O)c2ccccc2)CC1
AC50 [1]: 6.31 µM [falling, single point]

O=C(COC(=O)CC1CCCC1)Nc1cccc(F)c1
AC50 [1]: 1.84 µM [rising, single point]

O=S(=O)(NCc1nnc2ccccn12)c1ccc(Cl)cc1
AC50 [1]: 10.3 µM [falling, partial curve, poor fit]

CCOC(=O)C1CCCN(S(=O)(=O)c2cc(C(=O)OC)n(C)c2)C1 (centres undefined)
AC50 [1]: 3.16 µM [rising, partial curve, poor fit]

CCOc1nc(NC(=O)NS(=O)(=O)c2ccccc2F)nc(-c2ccccc2)n1
AC50 [1]: 0.501 µM [falling, full curve]

O=C(c1ccccc1F)N1CCOCC1
AC50 [1]: 6.31 µM [rising, single point]

Cc1cccc(OCCCn2c(=O)sc3ccccc32)c1
AC50 [1]: 3.98 µM [rising, partial curve]

O=C(Nc1cccc(Cl)c1)c1ccc2c(c1)OCCO2
AC50 [1]: 20 µM [falling, partial curve, poor fit]

COc1cscc1C(N)=O
AC50 [1]: 2.51 µM [rising, full curve, poor fit]

Cc1ccc(C(=O)O)c(C(=O)Nc2nc3ccccc3s2)c1
AC50 [1]: 12.6 µM [falling, partial curve]

CC(OC(=O)CNC(=O)c1ccc(Cl)c([N+](=O)[O-])c1)C(=O)NC1CCCCC1C (centres undefined)
AC50 [1]: 3.66 µM [falling, partial curve]

COc1ccc(C(=O)N2N=C(c3cccs3)CC2c2ccccc2O)cc1 (centres undefined)
AC50 [1]: 3.55 µM [rising, partial curve]

CC(Oc1ccc(Cl)cc1)C(=O)N/N=C/c1ccsc1 (centres undefined)
AC50 [2]: 29.1 µM [falling, single point]

CC(=O)NCCNc1nc2c(-c3cccc(C(F)(F)F)c3)nnn2c2ccccc12
AC50 [1]: 17.8 µM [rising, partial curve, poor fit]

N#Cc1c(C(F)(F)F)cc(-c2ccc(Cl)cc2)[nH]c1=O
AC50 [1]: 29.1 µM [falling, single point]

CCOC(=O)NC1(C(F)(F)F)C(=O)NC(C)=C1C#N (centres undefined)
AC50 [1]: 1.03 µM [falling, full curve]

COc1cc(/C=N/Nc2cc(C)nc(NS(=O)(=O)c3ccccc3)n2)ccc1O
AC50 [1]: 0.501 µM [rising, full curve]

COc1ccc(C(=O)Nc2ccc(N3CCCC3)cc2)cc1
AC50 [1]: 0.731 µM [falling, full curve]

COc1cc(/C=N/Nc2nc(Nc3ccccc3)nc(N3CCOCC3)n2)ccc1OC(=O)c1ccco1
AC50 [1]: 7.08 µM [falling, partial curve]

O=C(O)/C(=N/NC(=O)c1ccc(Cl)cc1)c1ccccc1
AC50 [1]: 0.112 µM [falling, full curve, poor fit]

CCOC(=O)NC(=O)/C(C=Nc1ccc(Cl)c(Cl)c1Cl)=C(\C)O
AC50 [1]: 14.6 µM [rising, partial curve, poor fit]

Cc1ccc(Oc2nc3ccccc3n3c(C)nnc23)c(C)c1
AC50 [1]: 29.1 µM [rising, single point]

O=C(O)c1ccccc1OCc1nc2ccccc2s1
AC50 [1]: 1 µM [rising, full curve, poor fit]

CCOc1cccc(/C=N/NC(=S)Nc2cc(S(=O)(=O)N3CCOCC3)ccc2N2CCOCC2)c1O
AC50 [1]: 29.1 µM [falling, single point]

COc1ccc(/C=C/C(=O)O)cc1S(=O)(=O)N1CCc2ccccc2C1
AC50 [2]: 31.6 µM [rising, partial curve, poor fit]
